Measured values reported in PubChem BioAssay AID248 (DTP/NCI, 2004).
The list shows only some results of the screen, not a fair sample: it gathers tests that were run many times, whatever their T/C, doses with no T/C, and many T/C values between a quarter and a half above the control. Other doses and runs of a compound stand elsewhere. T/C is the treated group as % of the vehicle group. Some doses have a count of surviving animals in place of a T/C: the source holds a T/C of zero for them, seemingly a mark for toxic or unscored doses. Some doses without a T/C left all or most animals alive at the check, yet need not have been tolerated: survival well below the control is almost never listed, so the zero probably covers shortened survival too. Counts of survivors are from the toxicity check (mostly the fifth day) where no day follows; animals may have died later. Schedules are NCI's codes, taken here to give the interval after Q, in days (D) or hours (H), and the number of doses after X. Some schedules carry Z or #; the key to these is not given. Where survival is the endpoint, the PubChem record calls one and a half times the control and up active, and a quarter to a half above the control has no call in these data; cut-offs in other NCI protocols can differ. Some T/C values carry the count of animals alive at the toxicity check (mostly the fifth day); where none is given, no animal had died by that day.

Tested on: L1210 leukemia ip in BDF1 mice, survival T/C
Assay: NCI In Vivo Anticancer Drug Screen. Data for tumor model L1210 Leukemia (intraperitoneal) in B6D2F1 (BDF1) mice
Details: T/C endpoint: mean survival time, higher T/C = longer survival
[1] = dose: 400.0 mg/kg/injection, schedule: Q01DX001 (ip), vehicle: carboxymethylcellulose (CMC)
[2] = dose: 400.0 mg/kg/injection, schedule: Q01DX009 (ip), vehicle: saline
[3] = dose: 400.0 mg/kg/injection, schedule: Q04DX003 (ip), vehicle: saline
[4] = dose: 200.0 mg/kg/injection, schedule: Q01DX009 (ip), vehicle: saline
[5] = dose: 100.0 mg/kg/injection, schedule: Q04DX003 (ip), vehicle: saline
[6] = dose: 200.0 mg/kg/injection, schedule: Q04DX003 (ip), vehicle: saline
[7] = dose: 400.0 mg/kg/injection, schedule: Q04DX003 (ip), vehicle: Klucel (hydroxypropylcellulose) (HPC)

Compound: CCOC(=O)C1CCC/C1=N\N=C(N)N (configuration not stated) (tested in a mixture with another compound)
- survivor count (dose: 480.0 mg/kg/injection, schedule: Q01DX Z (oral), vehicle: methylcellulose (MC)): 3 of 6

Compound: Cc1csc[n+]1C1CCCCC1
- survivor count (dose: 150.0 mg/kg/injection, schedule: Q01DX001 (ip), vehicle: saline): 0 of 6
- survivor count (dose: 300.0 mg/kg/injection, schedule: Q01DX001 (ip), vehicle: saline): 0 of 6

Compound: FC(F)(F)c1ccc2c(c1)N(CCCN1CCN(C3CC3)CC1)c1ccccc1S2
- T/C (dose: 10.0 mg/kg/injection, schedule: Q01DX009 (ip), vehicle: saline): 125 % of control
- T/C (dose: 20.0 mg/kg/injection, schedule: Q01DX009 (ip), vehicle: saline): 128 % of control [5 of 6 alive]
- survivor count (dose: 40.0 mg/kg/injection, schedule: Q01DX009 (ip), vehicle: saline): 6 of 6
- survivor count (dose: 75.0 mg/kg/injection, schedule: Q01DX009 (ip), vehicle: saline): 2 of 6
- survivor count (dose: 150.0 mg/kg/injection, schedule: Q01DX009 (ip), vehicle: saline): 0 of 6
- survivor count (dose: 300.0 mg/kg/injection, schedule: Q01DX009 (ip), vehicle: saline): 0 of 6

Compound: COc1cc(C2c3cc4c(cc3C(O)C(CO)C2CO)OCO4)cc(OC)c1OC (configuration not stated)
- T/C (dose: 40.0 mg/kg/injection, schedule: Q01DX Z (ip), vehicle: carboxymethylcellulose (CMC)): 127 % of control
- T/C (dose: 70.0 mg/kg/injection, schedule: Q01DX Z (ip), vehicle: carboxymethylcellulose (CMC)): 126 % of control
- T/C (dose: 300.0 mg/kg/injection, schedule: Q04DX003 (ip), vehicle: saline): 136 % of control
- survivor count (dose: 560.0 mg/kg/injection, schedule: Q01DX Z (ip), vehicle: carboxymethylcellulose (CMC)): 6 of 6

Compound: O=C(OC1(c2ccccc2)CC2CC1c1ccccc12)c1ccc([N+](=O)[O-])cc1 (configuration not stated)
- survivor count [1]: 4 of 4

Compound: CC(=O)OCc1ccccn1
- survivor count [2]: 3 of 6

Compound: CCC1NC(C)(C)CC1=C(C)C (configuration not stated)
- survivor count (dose: 100.0 mg/kg/injection, schedule: Q04DX003 (ip), vehicle: saline sonified): 0 of 6
- survivor count (dose: 200.0 mg/kg/injection, schedule: Q04DX003 (ip), vehicle: saline sonified): 0 of 6
- survivor count (dose: 400.0 mg/kg/injection, schedule: Q04DX003 (ip), vehicle: saline sonified): 0 of 6

Compound: c1ccc2c(OCCN3CC3)nccc2c1
- survivor count [1]: 0 of 6

Compound: O=C(O)c1cccc2c1C(=O)c1cc(Cl)ccc1-2
- survivor count (dose: 300.0 mg/kg/injection, schedule: Q01DX001 (ip), vehicle: carboxymethylcellulose (CMC)): 0 of 6

Compound: COC(=O)C(C)(N)Cc1ccc(O)cc1 (configuration not stated)
- survivor count [3]: 2 of 6

Compound: NC(CSCc1ccccc1)CSCc1ccccc1
- survivor count [4]: 0 of 6

Compound: O=C/C=C/c1cc(Cl)ccc1O
- survivor count (dose: 400.0 mg/kg/injection, schedule: Q01DX001 (ip), vehicle: saline): 0 of 6

Compound: S=C1NC(c2ccccc2)NC(c2ccccc2)S1 (configuration not stated)
- survivor count [5]: 6 of 6
- survivor count [6]: 6 of 6
- survivor count [3]: 6 of 6

Compound: Cc1coc(NS(=O)(=O)c2ccc(N=Nc3cc(N=Nc4ccccc4)c(N)nc3N)cc2)c1C
- survivor count [1]: 2 of 4

Compound: CCOC(=O)C1C(=O)C2CCc3c(ccc4ccccc34)N2C1=O (configuration not stated)
- survivor count [7]: 2 of 6

Compound: CNCCC=C1c2ccccc2CCc2ccccc21
- survivor count (dose: 100.0 mg/kg/injection, schedule: Q01DX009 (ip), vehicle: saline): 2 of 6
- survivor count [5]: 1 of 4
- survivor count [4]: 0 of 6
- survivor count [6]: 0 of 4
- survivor count [2]: 0 of 6
- survivor count [3]: 1 of 4

Compound: COc1cc(OC)c(OC)cc1/C=C/c1cc[n+](C)c2ccccc12
- survivor count (dose: 200.0 mg/kg/injection, schedule: Q04DX002 (ip), vehicle: Klucel (hydroxypropylcellulose) (HPC)): 1 of 3
- survivor count (dose: 400.0 mg/kg/injection, schedule: Q04DX002 (ip), vehicle: Klucel (hydroxypropylcellulose) (HPC)): 0 of 3

Compound: CC(=O)N1C(=O)C(Cl)C(Cl)C(=O)N1C(C)=O (configuration not stated)
- survivor count [7]: 3 of 6
